Measured values: patent publication US20120028913A1
No constants are given. Whether binding was seen depends on the method and setting. Some binding calls cover weakened binding; strength is not graded here.

The chains behind the UniProt entries cited, without tags or fusion partners. Residues count along the entry.
UniProt P13500, residues 24-99: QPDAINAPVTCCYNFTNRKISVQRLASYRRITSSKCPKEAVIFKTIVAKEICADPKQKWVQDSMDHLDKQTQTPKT
UniProt P48061, residues 22-89: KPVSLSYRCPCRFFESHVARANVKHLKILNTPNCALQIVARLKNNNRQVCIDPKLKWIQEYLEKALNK
UniProt P10145, residues 28-99: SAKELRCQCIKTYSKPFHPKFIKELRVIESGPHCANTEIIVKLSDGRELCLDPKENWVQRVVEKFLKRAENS
UniProt P51671, residues 24-97: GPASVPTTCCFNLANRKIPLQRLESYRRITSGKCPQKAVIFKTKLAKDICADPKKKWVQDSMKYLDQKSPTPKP

Assays:
[1] = target: Human MCP-1 (MCAF) (human) (UniProt P13500); experiment: peptide-containing carriers, binding vs control proteins (FIG. 1)
human MIG (human) [2] = target: T1, human MIG (human) (UniProt Q07325); experiment: ELISA on chemokine-coated plates (FIG. 3)
T1 sequence (looked up): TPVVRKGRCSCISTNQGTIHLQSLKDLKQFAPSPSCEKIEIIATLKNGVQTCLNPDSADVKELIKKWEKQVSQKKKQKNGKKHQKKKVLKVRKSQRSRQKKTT

human MIG (human) [3] = target: T1, human MIG (human); experiment: ELISA on chemokine-coated plates, fold over control proteins (FIG. 3)
[4] = target: Human MCP-1 (MCAF) (human) (UniProt P13500); experiment: as above
Human SDF-1α (human) [5] = target: Human SDF-1α (human) (UniProt P48061); experiment: as above
[6] = target: human IL-8, (72 amino acids) (human) (UniProt P10145); experiment: as above
human Eotaxin (human) [7] = target: human Eotaxin (human) (UniProt P51671); experiment: as above
human MIG (human) [8] = target: T1, human MIG (human); experiment: Bound chemokines (at least); screen vs control proteins
[9] = target: Human MCP-1 (MCAF) (human) (UniProt P13500); experiment: as above
[10] = target: human IL-8, (72 amino acids) (human) (UniProt P10145); experiment: as above
[11] = target: Human MCP-1 (MCAF) (human) (UniProt P13500); experiment: FIG. 1 legend
human MIG (human) [12] = target: T1, human MIG (human); experiment: earlier ELISA, told with the flow chamber assay
Human SDF-1α (human) [13] = target: Human SDF-1α (human) (UniProt P48061); experiment: Bound chemokines (at least); screen vs control proteins
human Eotaxin (human) [14] = target: human Eotaxin (human) (UniProt P51671); experiment: as above
Human SDF-1α (human) [15] = target: Human SDF-1α (human) (UniProt P48061); experiment: peptide-containing carriers, binding vs control proteins (FIG. 1)
Human SDF-1α (human) [16] = target: Human SDF-1α (human) (UniProt P48061); experiment: FIG. 1 legend

Measured: binding

SIFAHQTPTHKNGGGSKG (biotin on Lys of C-terminal GGGSK-biotin-G) [BKT-P3]
not listed: Human SDF-1α (human) [13] | human Eotaxin (human) [14] | Human SDF-1α (human) [15] | Human SDF-1α (human) [16]
binds: all other assays above

SAGHIHEAHRPLGGGSKG (biotin on Lys of C-terminal GGGSK-biotin-G) [BKT-P39]
binds: Human SDF-1α (human) [13] | [10] | human Eotaxin (human) [14]

HHFHLPKLRPPVGGGSKG (biotin on Lys of C-terminal GGGSK-biotin-G) [BKT-P45]
binds: human MIG (human) [8] | [9] | [10]

SFWHHHSPRSPL [BKT-P31]
binds: human Eotaxin (human) [14]

SQTLPYSNAPSPGGGSKG (biotin on Lys of C-terminal GGGSK-biotin-G) [BKT-P1]
binds: Human SDF-1α (human) [15] | Human SDF-1α (human) [16]

SIPSHSIHSAKAGGGSKG (biotin on Lys of C-terminal GGGSK-biotin-G) [BKT-P2]
binds: [9] | [10] | human Eotaxin (human) [14]
